By AC50 is commonly meant the concentration giving half of the maximal activity seen. Lower therefore signals activity at low concentration.

57 compounds from PubChem BioAssay AID2685 (National Center for Advancing Translational Sciences (NCATS), 2010) can be followed below.

The nature of the assay: qHTS Assay for Lipid Storage Modulators in Drosophila S3 Cells.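 For cell number change: cells counted by Cell Tracker Red CMTPX staining in the red channel.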 The note with it: BODIPY lipid droplet fluorescence, 18-24 h; for cell number change: measured here: cell count max response, cells fed with added oleic acid. Put shortly: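 Drosophila S3 cells got compounds at several concentrations plus oleic acid (400 uM solution). Laser-scanning cytometry with 488 nm excitation read lipid droplets at 500-530 nm and cells at 575-640 nm. Percent activity was relative to 20 uM Triacsin C.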

Where [1] appears, read: measured here: lipid fluorescence (Fed channel) AC50, cells fed with added oleic acid.
[2] abbreviates: measured here: cell number channel AC50, cells fed with added oleic acid.

This is one part of the list. These are further read-outs of the screen, such as a control signal, another cell line or another target. No call is given for them. Compounds called inactive in the main read-out are mostly missing here. Potencies come from curve fits of mixed quality, noted in brackets.

Regarding `Cc1nn(CCC(=O)NNC(=S)Nc2ccc([N+](=O)[O-])cc2)c(C)c1[N+](=O)[O-]`, the AC50 under setting [1] is 6.51 µM [falling, single point].
Consider `COc1cccc(-c2cc(C(=O)NCCCn3ccnc3)no2)c1`, for which the cell number change worked out at 57.4%. Moreover, the concentration at half-maximal activity (AC50) under setting [2] is 1.3 µM [rising, full curve].
As for `CCOC(=O)Cn1nc(-c2ccc(C)cc2)ccc1=O`, the cell number change is 186%. Besides, the AC50 under setting [2] is 20.6 µM [rising, partial curve]. Also, the AC50 under setting [1] is 2.31 µM [rising, partial curve].
Turning to `CCc1nnc(NC(=O)c2cccc(NC(=O)C(C)C)c2)s1`, the cell number change was -26.2%.
For the compound `NC(=O)c1ccc(NC(=O)COC(=O)c2c[nH]c3ccccc23)cc1`, the cell number change is 193%. Also, the AC50 under setting [2] was 18.4 µM [rising, partial curve].
With `Cc1nc2c(C(=O)NCCc3ccccc3Cl)c[nH]n2c(=O)c1Cl`, the cell number change was found to be 16.2%. Under setting [1], the AC50 was 6.51 µM [rising, full curve, poor fit].
In the case of `Cc1nc(-c2cccc3ccccc23)ccc1C(=O)O`, the cell number change was -13.4%. Also, under setting [2], the AC50 was 1.84 µM [falling, partial curve, poor fit]. Also, under setting [1], the AC50 is 32.6 µM [falling, single point].
On to `O=C(Cn1cnc2sc(-c3ccccc3)cc2c1=O)NCc1ccco1`, for which, under setting [2], the AC50 is 6.51 µM [rising, single point].
As to `CCOc1cc(NC(=O)c2ccco2)c(OCC)cc1NC(=O)Cc1ccc(OC)c(OC)c1`, the cell number change is -32.5%. Also, under setting [2], the half-maximal activity concentration (AC50) was 20.6 µM [falling, single point].
Consider `O=C(CSc1ccccc1C(=O)O)NCc1ccc(Cl)cc1`, for which the cell number change was -21.8%. For the same compound, the AC50 under setting [2] is 0.0058 µM [falling, full curve, poor fit]. Besides, the AC50 under setting [1] is 16.4 µM [falling, single point].
Take `CCc1cccc(CC)c1NC(=O)CNCc1cccs1`: the cell number change is -2.42%. Also, the AC50 under setting [1] was 20.6 µM [rising, single point].
For `CCn1cc(C(=O)NCc2ccccc2F)c(=O)c2ccc(C)nc21`, the cell number change turned out to be 6.02%. In addition, the AC50 under setting [1] is 2.91 µM [falling, partial curve].
Regarding `O=C1Nc2ccccc2/C1=N/c1sc2c(c1C(=O)NCCc1ccccc1)CCCC2`, the cell number change was -29.7%. Also, the AC50 under setting [1] is 14.6 µM [falling, single point].
For `COc1cc2ncnc(NCCc3ccccc3)c2cc1OC`, the cell number change is -19.5%. In addition, the AC50 under setting [1] was 18.4 µM [falling, single point].
As to `Cc1ccc(C(=O)Nc2cc3[nH]c(=O)oc3cc2C)cc1`, the cell number change is 20.8%. The AC50 under setting [1] was 29.1 µM [rising, partial curve, poor fit].
As for `O=C(O)c1cc(-c2ccncc2)nc2ccc(S(=O)(=O)N3CCOCC3)cc12`, the cell number change was 2.37%. Further, the AC50 under setting [2] is 0.058 µM [falling, full curve, poor fit].
Turning to `O=C(c1cc2cc(Br)cc(Br)c2oc1=O)N1CCOCC1`, the cell number change amounted to 26.4%. In addition, the AC50 under setting [1] is 1.3 µM [falling, full curve].
In the case of `COc1ccc(-n2c(C)cc(C(=O)CN3C(=O)C(=O)N(Cc4ccccc4)C3=O)c2C)cc1`, the cell number change is -0.488%. Also, the concentration at half-maximal activity (AC50) under setting [1] is 7.31 µM [rising, partial curve].
Turning to `CSc1ccccc1-n1nnnc1SCC(=O)Nc1cc(C)ccc1C`, the cell number change was 14.6%. Also, the concentration at half-maximal activity (AC50) under setting [2] is 0.13 µM [rising, full curve]. Also, the AC50 under setting [1] was 0.366 µM [rising, full curve, poor fit].
Regarding `O=C(c1ccco1)N1CCN(c2ncnc3c2oc2ccccc23)CC1`, the cell number change came out at 42.2%. For the same compound, under setting [2], the AC50 was 0.517 µM [rising, full curve]. The half-maximal activity concentration (AC50) under setting [1] was 1.84 µM [rising, partial curve].
Consider `C[C@H](NC(=O)OC(C)(C)C)c1nnc(SCC(N)=O)o1`, for which the cell number change was -10.9%. For the same compound, the AC50 under setting [1] was 0.164 µM [falling, full curve, poor fit].
Turning to `Cc1ccc(CN2CCN(/N=C/c3cccn3C)CC2)c(C)c1`, the cell number change amounted to 27.1%.
In the case of `Cc1c(C(=O)N/N=C/c2ccccc2)[nH]c2ccc(Cl)cc12`, the cell number change was -18.5%. Under setting [1], the AC50 was 23.1 µM [falling, single point].
Consider `Cc1nc(Cl)sc1C(=O)Nc1ccccc1`, for which the cell number change was found to be 15.4%. The concentration at half-maximal activity (AC50) under setting [1] was 1.3 µM [rising, full curve, poor fit].
In the case of `CC(C)CNc1nc(N)c([N+](=O)[O-])c(NCc2ccccc2)n1`, the cell number change is -5.41%. Moreover, the half-maximal activity concentration (AC50) under setting [1] was 5.8 µM [falling, full curve].
In the case of `Oc1ccccc1-c1cncn1Cc1ccccc1`, the cell number change worked out at 27.6%. In addition, the half-maximal activity concentration (AC50) under setting [1] is 1.03 µM [rising, full curve, poor fit].
`O=C(NC1CCC(NC(=O)C(F)(F)C(F)F)CC1)C(F)(F)C(F)F` (stereo not given): the cell number change was -9.03%. Besides, under setting [1], the AC50 is 2.31 µM [falling, full curve, poor fit].
`O=c1[nH]c(=O)n(Cc2ccco2)c2c1C(C(F)(F)F)(C(F)(F)F)N=C(CCC1CCCCC1)N2`: the cell number change is -55.6%. Further, the concentration at half-maximal activity (AC50) under setting [2] was 18.4 µM [falling, single point]. Under setting [1], the AC50 was 25.9 µM [falling, single point].
For `Cc1c(/C=N\NC(=O)c2ccc([N+](=O)[O-])cc2)cnn1C`, the cell number change was -36.2%. The AC50 under setting [2] is 5.17 µM [falling, full curve]. Besides, the AC50 under setting [1] is 0.0326 µM [falling, full curve].
Consider `Cc1cc(C)cc(NC(=O)C2C3C=CC4(O3)C2C(=O)N(CCCN2CCCCC2)C4C(=O)NC2CCCCC2)c1` (stereo not given), for which the cell number change was 19%. Further, the AC50 under setting [1] is 2.91 µM [falling, partial curve].
Consider `O=C(Nc1cccc(F)c1)C1CCN(C(=O)c2ccc(Br)cc2)CC1`, for which the cell number change was 71.6%. Further, the AC50 under setting [2] is 18.4 µM [rising, single point].
For `COc1ccc(CNC(=O)CCS(=O)(=O)c2cccc3nonc23)cc1`, the cell number change turned out to be 0.132%.
As for `O=C(OCC1CC(c2ccccc2)=NO1)c1ccco1` (stereo not given), the cell number change is 0.645%. For the same compound, under setting [1], the AC50 is 0.00461 µM [falling, full curve, poor fit].
Take `O=C(c1ccc2ccccc2c1)N1CCN(S(=O)(=O)/C=C/c2ccccc2)CC1`: the cell number change is -15.2%.
Still for that read-out and setting: with `CCc1cccc(NC(=O)C2CCN(S(=O)(=O)c3ccc4c(c3)CC(C)N4C(C)=O)CC2)c1` (stereo not given) the figure was -23.4%.
Consider `COc1ccc(NC(=O)NC2CCCc3ccccc32)cc1` (stereo not given), for which, under setting [1], the AC50 was 29.1 µM [rising, single point].
With `Cc1cccnc1NC(=O)CN1C(=O)COc2ccc(Cl)cc21`, the cell number change came out at 10.3%. Besides, the AC50 under setting [1] is 0.082 µM [rising, full curve, poor fit].
In the case of `Cc1ccccc1N1CCN(CC(=O)Nc2nc(C)c(C(=O)N(C)C)s2)CC1`, the cell number change is -0.824%. Further, the AC50 under setting [1] was 14.6 µM [rising, partial curve].
On to `CC[n+]1c(/C=C/N(C)c2ccccc2)n(-c2ccccc2)c2ccc(-c3nc4ccccc4s3)cc21`, for which the cell number change is -27.5%. Under setting [2], the AC50 was 0.082 µM [falling, full curve, poor fit]. Besides, under setting [1], the AC50 was 2.31 µM [falling, partial curve].
Turning to `CCOC(=O)C1CCN(C(=O)c2ccc(N(C)S(C)(=O)=O)cc2)CC1`, the cell number change turned out to be 21.9%. Further, the half-maximal activity concentration (AC50) under setting [2] was 0.0651 µM [rising, full curve, poor fit]. Besides, the AC50 under setting [1] was 0.0651 µM [rising, full curve, poor fit].
With `COc1ccc(C(=O)c2cn(CC(=O)Nc3cc(OC)cc(OC)c3)c3ccc(OC)cc3c2=O)cc1`, the cell number change came to 37.1%. Also, the AC50 under setting [2] was 23.1 µM [rising, single point]. In addition, the AC50 under setting [1] is 23.1 µM [rising, partial curve].
Turning to `[O-]/[N+](=C\C=C\c1ccccc1)c1ccccc1`, the cell number change is -17.5%. Besides, under setting [1], the AC50 is 3.66 µM [falling, full curve, poor fit].
Turning to `COc1ccccc1NC(=O)COc1coc(CN2CCN(c3ccccc3)CC2)cc1=O`, the half-maximal activity concentration (AC50) under setting [2] is 1.46 µM [rising, full curve].
Turning to `COc1ccc2cc3cc(C(=O)Nc4ccc5c(c4)OCCO5)oc3nc2c1`, the cell number change was -70.4%. Under setting [2], the AC50 is 16.4 µM [falling, partial curve, poor fit].
`Cc1ccc(S(=O)(=O)N(Cc2nccn2C)C(C)C)cc1`: the cell number change worked out at 3.84%. Moreover, the AC50 under setting [1] was 29.1 µM [rising, single point].
As for `COc1ccc2oc(C(=O)c3ccccc3)c(N)c2c1`, the cell number change is -35.2%. Besides, the AC50 under setting [2] was 0.291 µM [falling, full curve].
For `COc1ccc(C(=O)c2ccccc2Cl)cc1`, under setting [1], the AC50 is 0.326 µM [falling, partial curve, poor fit].
For the compound `Cc1ccc2c(Cl)cc(Cl)c(OCC(=O)NC3CCS(=O)(=O)C3)c2n1` (stereo not given), the AC50 under setting [1] was 0.00517 µM [falling, full curve, poor fit].
As to `O=C(N/N=C/c1ccc2c(c1)OCO2)c1ccc2ccccc2n1`, the cell number change turned out to be 90.9%. The half-maximal activity concentration (AC50) under setting [2] is 18.4 µM [rising, partial curve]. Besides, the AC50 under setting [1] was 14.6 µM [rising, partial curve].
With `O=c1cc(-c2ccccc2Cl)oc2c(NS(=O)(=O)c3cccs3)ccc(O)c12`, the cell number change was 9.84%. Moreover, the AC50 under setting [1] was 0.92 µM [rising, full curve, poor fit].
As to `CCCN(CCC)CCCNC(=O)C1c2cc(OC)c(OC)cc2C(=O)N(C)C1c1cccnc1` (stereo not given), the cell number change came out at 11%. Under setting [2], the AC50 was 3.66 µM [falling, single point]. Also, under setting [1], the concentration at half-maximal activity (AC50) was 6.51 µM [falling, single point].
Turning to `CSCCC(NS(=O)(=O)c1ccc(C)cc1)C(=O)Nc1ccc(C)cn1` (stereo not given), the cell number change is -99.4%. The half-maximal activity concentration (AC50) under setting [2] was 29.1 µM [falling, single point]. The AC50 under setting [1] is 4.11 µM [rising, partial curve].
Turning to `CCn1c(CNC(=O)c2cccs2)n[nH]c1=S`, the cell number change stood at 12.8%. The AC50 under setting [1] was 18.4 µM [rising, single point].
On to `Cc1cc2oc(C(=O)N(Cc3ccco3)C3CCS(=O)(=O)C3)cc(=O)c2cc1Cl` (stereo not given), for which the AC50 is 0.461 µM [falling, single point] under setting [2] and 0.58 µM [falling, single point] under setting [1].
Turning to `Cc1ccc(CNC(=O)C2CN(S(C)(=O)=O)c3cc(Cl)ccc3O2)cc1` (stereo not given), the cell number change was -28.5%. Also, the AC50 under setting [1] is 6.51 µM [falling, single point].
For `COc1ccc(-c2noc(-c3ccco3)n2)cc1OC`, the cell number change was -16.6%. In addition, the AC50 under setting [1] is 0.00651 µM [rising, full curve, poor fit].
As for `CN1C(=O)CC(N2CCN(c3ccc(Cl)c(Cl)c3)CC2)C1=O` (stereo not given), the AC50 under setting [1] is 6.51 µM [falling, single point].
